Experimental data: PMC12756210, “Calcium signaling-mediated phosphorylation controls zinc allocation in Arabidopsis” (Stress Biology, 2025)
These are yes or no findings as the source states them, for the method shown. Tags and fused reporters may be left off the sequences shown.

B1: CIPK3-His (protein, UniProt Q2V452 1-441)
chain: MNRRQQVKRRVGKYEVGRTIGEGTFAKVKFARNSETGEPVALKILDKEKVLKHKMAEQIRREIATMKLIKHPNVVQLYEVMASKTKIFIILEYVTGGELFDKIVNDGRMKEDEARRYFQQLIHAVDYCHSRGVYHRDLKPENLLLDSYGNLKISDFGLSALSQQVRDDGLLHTSCGTPNYVAPEVLNDRGYDGATADMWSCGVVLYVLLAGYLPFDDSNLMNLYKKISSGEFNCPPWLSLGAMKLITRILDPNPMTRVTPQEVFEDEWFKKDYKPPVFEERDDSNMDDIDAVFKDSEEHLVTEKREEQPAAINAFEIISMSRGLNLENLFDPEQEFKRETRITLRGGANEIIEKIEEAAKPLGFDVQKKNYKMRLENVKAGRKGNLNVATEIFQVAPSLHMVQVSKSKGDTLEFHKFYKKLSNSLEQVVWTNNEVKKETAK
B2: CIPK9-His (protein, UniProt Q9MAM1 1-447)
chain: MSGSRRKATPASRTRVGNYEMGRTLGEGSFAKVKYAKNTVTGDQAAIKILDREKVFRHKMVEQLKREISTMKLIKHPNVVEIIEVMASKTKIYIVLELVNGGELFDKIAQQGRLKEDEARRYFQQLINAVDYCHSRGVYHRDLKPENLILDANGVLKVSDFGLSAFSRQVREDGLLHTACGTPNYVAPEVLSDKGYDGAAADVWSCGVILFVLMAGYLPFDEPNLMTLYKRICKAEFSCPPWFSQGAKRVIKRILEPNPITRISIAELLEDEWFKKGYKPPSFDQDDEDITIDDVDAAFSNSKECLVTEKKEKPVSMNAFELISSSSEFSLENLFEKQAQLVKKETRFTSQRSASEIMSKMEETAKPLGFNVRKDNYKIKMKGDKSGRKGQLSVATEVFEVAPSLHVVELRKTGGDTLEFHKFYKNFSSGLKDVVWNTDAAAEEQKQ
B3: CIPK23-His (protein, UniProt Q93VD3 1-482)
chain: MASRTTPSRSTPSRSTPSGSSSGGRTRVGKYELGRTLGEGTFAKVKFARNVENGDNVAIKVIDKEKVLKNKMIAQIKREISTMKLIKHPNVIRMFEVMASKTKIYFVLEFVTGGELFDKISSNGRLKEDEARKYFQQLINAVDYCHSRGVYHRDLKPENLLLDANGALKVSDFGLSALPQQVREDGLLHTTCGTPNYVAPEVINNKGYDGAKADLWSCGVILFVLMAGYLPFEDSNLTSLYKKIFKAEFTCPPWFSASAKKLIKRILDPNPATRITFAEVIENEWFKKGYKAPKFENADVSLDDVDAIFDDSGESKNLVVERREEGLKTPVTMNAFELISTSQGLNLGSLFEKQMGLVKRKTRFTSKSSANEIVTKIEAAAAPMGFDVKTNNYKMKLTGEKSGRKGQLAVATEVFQVAPSLYMVEMRKSGGDTLEFHKFYKNLTTGLKDIVWKTIDEEKEEGTDGGGTNGAMANRTIAKQST
B4: CIPK26-His (protein, UniProt Q84VQ3 1-439)
chain: MNRPKVQRRVGKYEVGKTLGQGTFAKVRCAVNTETGERVALKILDKEKVLKHKMAEQIRREICTMKLINHPNVVRLYEVLASKTKIYIVLEFGTGGELFDKIVHDGRLKEENARKYFQQLINAVDYCHSRGVYHRDLKPENLLLDAQGNLKVSDFGLSALSRQVRGDGLLHTACGTPNYAAPEVLNDQGYDGATADLWSCGVILFVLLAGYLPFEDSNLMTLYKKIIAGEYHCPPWLSPGAKNLIVRILDPNPMTRITIPEVLGDAWFKKNYKPAVFEEKEEANLDDVDAVFKDSEEHHVTEKKEEQPTSMNAFELISMSRALDLGNLFEEEEGFKRETRFAAKGAANDLVQKIEEASKPLGFDIQKKNYKMRLENVTAGRKGNLRVATEIFQVSPSLHMIEVRKTKGDTLEFHKFYKKLSTSLNDVVWKSGESSGLSK

Target: GST alone
Test: pull-down; GST-ZIP2-Loop (or GST) on glutathione beads incubated with His-CIPK3/9/23/26; eluate blotted with anti-His antibody; both purified

Binder | binding
B1 | no binding
B2 | no binding
B3 | no binding
B4 | no binding
